Assay results taken from PMC6198467.
These are yes or no findings as the source states them, for the method shown. Binding seen in cells or lysates may run through a third protein. Some entries that bind do so weakly or less than the wild type. For part of these data: Tags and fused reporters may be left off the sequences shown.

T1: Neurog2 (UniProt P70447)
T1 sequence: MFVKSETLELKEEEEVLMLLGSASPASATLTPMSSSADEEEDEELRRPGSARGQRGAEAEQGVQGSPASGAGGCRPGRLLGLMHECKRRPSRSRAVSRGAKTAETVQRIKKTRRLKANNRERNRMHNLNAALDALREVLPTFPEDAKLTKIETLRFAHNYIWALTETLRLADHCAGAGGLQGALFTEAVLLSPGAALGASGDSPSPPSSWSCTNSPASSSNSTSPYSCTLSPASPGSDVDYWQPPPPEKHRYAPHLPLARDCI

T2: Flag-tagged Neurog2 (UniProt P70447)
T2 sequence: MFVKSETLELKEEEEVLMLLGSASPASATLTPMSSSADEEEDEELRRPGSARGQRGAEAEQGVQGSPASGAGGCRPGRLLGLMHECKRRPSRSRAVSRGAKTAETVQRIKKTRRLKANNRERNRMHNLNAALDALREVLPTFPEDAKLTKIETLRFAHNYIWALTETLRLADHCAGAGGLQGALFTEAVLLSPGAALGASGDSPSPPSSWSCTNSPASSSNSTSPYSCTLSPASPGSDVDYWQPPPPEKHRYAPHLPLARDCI

T3: Neurog2 (endogenous, mouse embryonic cortex) (mouse (endogenous in embryonic cortex)) (UniProt P70447)
T3 sequence: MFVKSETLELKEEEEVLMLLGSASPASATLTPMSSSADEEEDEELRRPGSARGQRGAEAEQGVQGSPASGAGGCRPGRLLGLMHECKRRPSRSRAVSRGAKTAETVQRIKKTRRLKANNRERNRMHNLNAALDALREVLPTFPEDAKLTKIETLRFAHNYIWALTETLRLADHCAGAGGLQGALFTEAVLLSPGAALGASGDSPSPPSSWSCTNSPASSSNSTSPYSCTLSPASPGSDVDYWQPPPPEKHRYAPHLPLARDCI


How the values were obtained:
Neurog2 = molecular target: T1, Neurog2; test: proximity ligation; NIH-3T3 transfected with pCIG2-Neurog1 and pCIG2-Neurog2, fixed 48 h after transfection; Duolink PLA with anti-Neurog1 and anti-Neurog2; single antibodies as controls
Flag-tagged Neurog2 = molecular target: T2, Flag-tagged Neurog2; test: co-IP; NIH-3T3 co-transfected with Neurog1 and FLAG-tagged Neurog2; 400 ug lysate in NET2 buffer (0.05% NP40, 150 mM NaCl, 50 mM Tris-Cl pH 7.4) precipitated with anti-FLAG M2 beads overnight at 4 C; half the samples with DNaseI (2 U/ml); blot with anti-Neurog1
[1] = molecular target: T3, Neurog2 (endogenous, mouse embryonic cortex) (mouse (endogenous in embryonic cortex)); test: proximity ligation; dissociated E12.5 mouse cortical cells, fixed with 4% PFA; Duolink PLA with antibodies to the endogenous proteins; no-antibody negative control

Binder | binding (Neurog2) | binding (Flag-tagged Neurog2) | binding [1]
Neurog1 (protein, UniProt P70660 1-244) MPAPLETCISDLDCSSSNSSSDLSSFLTDEEDCARLQPLASTSGLSVPARRSAPALSGASNVPGAQDEEQERRRRRGRARVRSEALLHSLRRSRRVKANDRERNRMHNLNAALDALRSVLPSFPDDTKLTKIETLRFAYNYIWALAETLRLADQGLPGGSARERLLPPQCVPCLPGPPSPASDTESWGSGAAASPCATVASPLSDPSSPSASEDFTYGPGDPLFSFPGLPKDLLHTTPCFIPYH | binds | binds | 
Neurog1 (endogenous, mouse embryonic cortex) (protein, UniProt P70660 1-244) MPAPLETCISDLDCSSSNSSSDLSSFLTDEEDCARLQPLASTSGLSVPARRSAPALSGASNVPGAQDEEQERRRRRGRARVRSEALLHSLRRSRRVKANDRERNRMHNLNAALDALRSVLPSFPDDTKLTKIETLRFAYNYIWALAETLRLADQGLPGGSARERLLPPQCVPCLPGPPSPASDTESWGSGAAASPCATVASPLSDPSSPSASEDFTYGPGDPLFSFPGLPKDLLHTTPCFIPYH |  |  | binds
